# In the supplement of paper PMC8728848:
# The other results are listed elsewhere or left out.
# How the values were obtained:
# Experiment in all cases: glycan array binding signal (z-score within array); higher = stronger binding
# Details in all cases: glycan notation: IUPAC condensed, linker removed
# Neu5Ac(a2-3)GalNAc = target: Neu5Ac(a2-3)GalNAc
# In short: (§1)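 The Consortium for Functional Glycomics database supplied 3228 glycan arrays, of which those lacking an available protein sequence were dropped. The binding signal, a within-array Z-score, was averaged across arrays of the same protein sequence and across linkers. Negative scores can be read as non-binding.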
# [1] = target: Neu5Ac(a2-3)GalNAc(b1-4)GlcNAc
# In short: as §1
# [2] = target: Neu5Ac(a2-3)[GalNAc(b1-4)]Gal(b1-4)Glc
# In short: as §1
# [3] = target: Neu5Ac(a2-3)[GalNAc(b1-4)]Gal(b1-4)GlcNAc
# In short: as §1
# [4] = target: Neu5Ac(a2-3)[GalNAc(b1-4)]Gal(b1-4)GlcNAc(b1-3)GalNAc
# In short: as §1
# [5] = target: Neu5Ac(a2-3)[Neu5Ac(a2-6)]GalNAc
# In short: as §1
# Neu5Ac(a2-6)Gal = target: Neu5Ac(a2-6)Gal
# In short: as §1
# [6] = target: Neu5Ac(a2-6)Gal(b1-3)GlcNAc(b1-3)[Gal(b1-4)GlcNAc(b1-6)]Gal(b1-4)Glc
# In short: as §1
# Neu5Ac(a2-6)Gal(b1-4)Glc = target: Neu5Ac(a2-6)Gal(b1-4)Glc
# In short: as §1
# [7] = target: Neu5Ac(a2-6)Gal(b1-4)GlcNAc
# In short: as §1
# [8] = target: Neu5Ac(a2-6)Gal(b1-4)GlcNAc(b1-2)Man
# In short: as §1
# [9] = target: Neu5Ac(a2-6)Gal(b1-4)GlcNAc(b1-2)Man(a1-3)Man(b1-4)GlcNAc(b1-4)GlcNAc
# In short: as §1
# [10] = target: Neu5Ac(a2-6)Gal(b1-4)GlcNAc(b1-2)Man(a1-3)[Gal(b1-4)GlcNAc(b1-2)Man(a1-6)]Man(b1-4)GlcNAc(b1-4)GlcNAc
# In short: as §1
# [11] = target: Neu5Ac(a2-6)Gal(b1-4)GlcNAc(b1-2)Man(a1-3)[GlcNAc(b1-2)Man(a1-6)]Man(b1-4)GlcNAc(b1-4)GlcNAc
# In short: as §1
# [12] = target: Neu5Ac(a2-6)Gal(b1-4)GlcNAc(b1-2)Man(a1-3)[GlcNAc(b1-4)][Neu5Ac(a2-6)Gal(b1-4)GlcNAc(b1-2)Man(a1-6)]Man(b1-4)GlcNAc(b1-4)GlcNAc
# In short: as §1
# [13] = target: Neu5Ac(a2-6)Gal(b1-4)GlcNAc(b1-2)Man(a1-3)[Man(a1-6)]Man(b1-4)GlcNAc(b1-4)GlcNAc
# In short: as §1
# [14] = target: Neu5Ac(a2-6)Gal(b1-4)GlcNAc(b1-2)Man(a1-3)[Neu5Ac(a2-3)Gal(b1-4)GlcNAc(b1-2)Man(a1-6)]Man(b1-4)GlcNAc(b1-4)GlcNAc
# In short: as §1
# [15] = target: Neu5Ac(a2-6)Gal(b1-4)GlcNAc(b1-2)Man(a1-3)[Neu5Ac(a2-6)Gal(b1-4)GlcNAc(b1-2)Man(a1-6)]Man(b1-4)GlcNAc(b1-4)GlcNAc
# In short: as §1
# [16] = target: Neu5Ac(a2-6)Gal(b1-4)GlcNAc(b1-2)Man(a1-3)[Neu5Ac(a2-6)Gal(b1-4)GlcNAc(b1-2)Man(a1-6)]Man(b1-4)GlcNAc(b1-4)[Fuc(a1-6)]GlcNAc
# In short: as §1
# [17] = target: Neu5Ac(a2-6)Gal(b1-4)GlcNAc(b1-2)Man(a1-6)Man(b1-4)GlcNAc(b1-4)GlcNAc
# In short: as §1
# [18] = target: Neu5Ac(a2-6)Gal(b1-4)GlcNAc(b1-2)Man(a1-6)[Gal(b1-4)GlcNAc(b1-2)Man(a1-3)]Man(b1-4)GlcNAc(b1-4)GlcNAc
# In short: as §1
# [19] = target: Neu5Ac(a2-6)Gal(b1-4)GlcNAc(b1-2)Man(a1-6)[GlcNAc(b1-2)Man(a1-3)]Man(b1-4)GlcNAc(b1-4)GlcNAc
# In short: as §1
# [20] = target: Neu5Ac(a2-6)Gal(b1-4)GlcNAc(b1-2)Man(a1-6)[Man(a1-3)]Man(b1-4)GlcNAc(b1-4)GlcNAc
# In short: as §1
# [21] = target: Neu5Ac(a2-6)Gal(b1-4)GlcNAc(b1-2)[Neu5Ac(a2-6)Gal(b1-4)GlcNAc(b1-4)]Man(a1-3)[GlcNAc(b1-4)][Neu5Ac(a2-6)Gal(b1-4)GlcNAc(b1-2)[Neu5Ac(a2-6)Gal(b1-4)GlcNAc(b1-6)]Man(a1-6)]Man(b1-4)GlcNAc(b1-4)GlcNAc
# In short: as §1
# [22] = target: Neu5Ac(a2-6)Gal(b1-4)GlcNAc(b1-2)[Neu5Ac(a2-6)Gal(b1-4)GlcNAc(b1-4)]Man(a1-3)[GlcNAc(b1-4)][Neu5Ac(a2-6)Gal(b1-4)GlcNAc(b1-4)Man(a1-6)]Man(b1-4)GlcNAc(b1-4)GlcNAc
# In short: as §1
# [23] = target: Neu5Ac(a2-6)Gal(b1-4)GlcNAc(b1-2)[Neu5Ac(a2-6)Gal(b1-4)GlcNAc(b1-6)]Man(a1-6)[Neu5Ac(a2-6)Gal(b1-4)GlcNAc(b1-2)Man(a1-3)][GlcNAc(b1-4)]Man(b1-4)GlcNAc(b1-4)GlcNAc
# In short: as §1
# [24] = target: Neu5Ac(a2-6)Gal(b1-4)GlcNAc(b1-3)Gal(b1-3)GlcNAc
# In short: as §1
# [25] = target: Neu5Ac(a2-6)Gal(b1-4)GlcNAc(b1-3)Gal(b1-4)GlcNAc
# In short: as §1
# [26] = target: Neu5Ac(a2-6)Gal(b1-4)GlcNAc(b1-3)Gal(b1-4)GlcNAc(b1-2)Man(a1-3)[Neu5Ac(a2-6)Gal(b1-4)GlcNAc(b1-3)Gal(b1-4)GlcNAc(b1-2)Man(a1-6)]GalNAc
# In short: as §1
# [27] = target: Neu5Ac(a2-6)Gal(b1-4)GlcNAc(b1-3)Gal(b1-4)GlcNAc(b1-3)Gal(b1-4)GlcNAc
# In short: as §1
# [28] = target: Neu5Ac(a2-6)Gal(b1-4)GlcNAc(b1-3)Gal(b1-4)GlcNAc(b1-3)Gal(b1-4)GlcNAc(b1-2)Man(a1-3)[Neu5Ac(a2-6)Gal(b1-4)GlcNAc(b1-3)Gal(b1-4)GlcNAc(b1-3)Gal(b1-4)GlcNAc(b1-2)Man(a1-6)]GalNAc
# In short: as §1
# [29] = target: Neu5Ac(a2-6)Gal(b1-4)GlcNAc(b1-3)Gal(b1-4)GlcNAc(b1-3)GalNAc
# In short: as §1
# [30] = target: Neu5Ac(a2-6)Gal(b1-4)GlcNAc(b1-3)Gal(b1-4)GlcNAc(b1-3)[Neu5Ac(a2-6)Gal(b1-4)GlcNAc(b1-3)Gal(b1-4)GlcNAc(b1-6)]GalNAc
# In short: as §1
# [31] = target: Neu5Ac(a2-6)Gal(b1-4)GlcNAc(b1-3)Gal(b1-4)GlcNAc(b1-6)[Gal(b1-3)]GalNAc
# In short: as §1
# [32] = target: Neu5Ac(a2-6)Gal(b1-4)GlcNAc(b1-3)Gal(b1-4)[Fuc(a1-3)]GlcNAc(b1-3)Gal(b1-4)[Fuc(a1-3)]GlcNAc
# In short: as §1
# [33] = target: Neu5Ac(a2-6)Gal(b1-4)GlcNAc(b1-3)GalNAc
# In short: as §1
# [34] = target: Neu5Ac(a2-6)Gal(b1-4)GlcNAc(b1-3)[Neu5Ac(a2-6)Gal(b1-4)GlcNAc(b1-6)]GalNAc
# In short: as §1
# [35] = target: Neu5Ac(a2-6)Gal(b1-4)GlcNAc(b1-6)GalNAc
# In short: as §1
# [36] = target: Neu5Ac(a2-6)Gal(b1-4)GlcNAc(b1-6)[Gal(b1-3)GlcNAc(b1-3)]Gal(b1-4)Glc
# In short: as §1
# [37] = target: Neu5Ac(a2-6)Gal(b1-4)GlcNAc(b1-6)[Gal(b1-3)]GalNAc
# In short: as §1
# [38] = target: Neu5Ac(a2-6)Gal(b1-4)GlcNAc6S
# In short: as §1
# Neu5Ac(a2-6)GalNAc = target: Neu5Ac(a2-6)GalNAc
# In short: as §1
# [39] = target: Neu5Ac(a2-6)GalNAc(b1-4)GlcNAc
# In short: as §1
# [40] = target: Neu5Ac(a2-6)GalNAc(b1-4)GlcNAc6S
# In short: as §1
# [41] = target: Neu5Ac(a2-6)GlcNAc(b1-4)GlcNAc
# In short: as §1
binder,measurement,setting,value
EULS2 M1 (Oryza sativa) (protein) MVYCRANPNYAMTARNGAVVLAPANPKDEYQHWIKDMRWSTSIKDEEGYPAFALVNKATGQAIKHSLGQSHPVRLVPYNPEVMDESVLWTESRDVGNGFRCIRMVNNIYLNFDAFHGDKYHGGVRDGTDIVLWKLCEGDNQRWKIQPYYILEQKLISEEDLNSAVDHHHHHH,glycan array binding signal (z-score),Neu5Ac(a2-3)GalNAc,-0.887
same,glycan array binding signal (z-score),[1],-0.339
same,glycan array binding signal (z-score),[2],0.542
same,glycan array binding signal (z-score),[3],0.157
same,glycan array binding signal (z-score),[4],0.893
same,glycan array binding signal (z-score),[5],-0.111
same,glycan array binding signal (z-score),Neu5Ac(a2-6)Gal,-0.345
same,glycan array binding signal (z-score),[6],-0.784
same,glycan array binding signal (z-score),Neu5Ac(a2-6)Gal(b1-4)Glc,-0.303
same,glycan array binding signal (z-score),[7],-0.618
same,glycan array binding signal (z-score),[8],-0.291
same,glycan array binding signal (z-score),[9],0.03
same,glycan array binding signal (z-score),[10],-0.083
same,glycan array binding signal (z-score),[11],-0.661
same,glycan array binding signal (z-score),[12],0.558
same,glycan array binding signal (z-score),[13],-0.402
same,glycan array binding signal (z-score),[14],-0.172
same,glycan array binding signal (z-score),[15],-0.134
same,glycan array binding signal (z-score),[16],-0.822
same,glycan array binding signal (z-score),[17],-0.753
same,glycan array binding signal (z-score),[18],-0.682
same,glycan array binding signal (z-score),[19],-0.209
same,glycan array binding signal (z-score),[20],-0.95
same,glycan array binding signal (z-score),[21],-0.902
same,glycan array binding signal (z-score),[22],-0.316
same,glycan array binding signal (z-score),[23],-0.432
same,glycan array binding signal (z-score),[24],-0.705
same,glycan array binding signal (z-score),[25],-0.613
same,glycan array binding signal (z-score),[26],0.102
same,glycan array binding signal (z-score),[27],-0.578
same,glycan array binding signal (z-score),[28],1.77
same,glycan array binding signal (z-score),[29],-0.801
same,glycan array binding signal (z-score),[30],1.49
same,glycan array binding signal (z-score),[31],0.283
same,glycan array binding signal (z-score),[32],1.21
same,glycan array binding signal (z-score),[33],0.427
same,glycan array binding signal (z-score),[34],-0.578
same,glycan array binding signal (z-score),[35],-0.939
same,glycan array binding signal (z-score),[36],-0.244
same,glycan array binding signal (z-score),[37],-0.14
same,glycan array binding signal (z-score),[38],-0.304
same,glycan array binding signal (z-score),Neu5Ac(a2-6)GalNAc,0.134
same,glycan array binding signal (z-score),[39],-0.931
same,glycan array binding signal (z-score),[40],-0.235
same,glycan array binding signal (z-score),[41],-0.384

# 3 neighbouring entries out of the list so far, for reference:
binder,measurement,setting,value
EULS2 M1 (Oryza sativa) (protein) MVYCRANPNYAMTARNGAVVLAPANPKDEYQHWIKDMRWSTSIKDEEGYPAFALVNKATGQAIKHSLGQSHPVRLVPYNPEVMDESVLWTESRDVGNGFRCIRMVNNIYLNFDAFHGDKYHGGVRDGTDIVLWKLCEGDNQRWKIQPYYILEQKLISEEDLNSAVDHHHHHH,glycan array binding signal (z-score),[9],0.03
same,glycan array binding signal (z-score),[10],-0.083
same,glycan array binding signal (z-score),[11],-0.661
